Measured values as given in the supplement of paper PMC10849652.
The other results are listed elsewhere or left out.

The chains behind the UniProt entries cited, without tags or fusion partners. Where a name states a change or a piece, a line headed by the entry shows the natural chain unless it says otherwise.
UniProt Q13395: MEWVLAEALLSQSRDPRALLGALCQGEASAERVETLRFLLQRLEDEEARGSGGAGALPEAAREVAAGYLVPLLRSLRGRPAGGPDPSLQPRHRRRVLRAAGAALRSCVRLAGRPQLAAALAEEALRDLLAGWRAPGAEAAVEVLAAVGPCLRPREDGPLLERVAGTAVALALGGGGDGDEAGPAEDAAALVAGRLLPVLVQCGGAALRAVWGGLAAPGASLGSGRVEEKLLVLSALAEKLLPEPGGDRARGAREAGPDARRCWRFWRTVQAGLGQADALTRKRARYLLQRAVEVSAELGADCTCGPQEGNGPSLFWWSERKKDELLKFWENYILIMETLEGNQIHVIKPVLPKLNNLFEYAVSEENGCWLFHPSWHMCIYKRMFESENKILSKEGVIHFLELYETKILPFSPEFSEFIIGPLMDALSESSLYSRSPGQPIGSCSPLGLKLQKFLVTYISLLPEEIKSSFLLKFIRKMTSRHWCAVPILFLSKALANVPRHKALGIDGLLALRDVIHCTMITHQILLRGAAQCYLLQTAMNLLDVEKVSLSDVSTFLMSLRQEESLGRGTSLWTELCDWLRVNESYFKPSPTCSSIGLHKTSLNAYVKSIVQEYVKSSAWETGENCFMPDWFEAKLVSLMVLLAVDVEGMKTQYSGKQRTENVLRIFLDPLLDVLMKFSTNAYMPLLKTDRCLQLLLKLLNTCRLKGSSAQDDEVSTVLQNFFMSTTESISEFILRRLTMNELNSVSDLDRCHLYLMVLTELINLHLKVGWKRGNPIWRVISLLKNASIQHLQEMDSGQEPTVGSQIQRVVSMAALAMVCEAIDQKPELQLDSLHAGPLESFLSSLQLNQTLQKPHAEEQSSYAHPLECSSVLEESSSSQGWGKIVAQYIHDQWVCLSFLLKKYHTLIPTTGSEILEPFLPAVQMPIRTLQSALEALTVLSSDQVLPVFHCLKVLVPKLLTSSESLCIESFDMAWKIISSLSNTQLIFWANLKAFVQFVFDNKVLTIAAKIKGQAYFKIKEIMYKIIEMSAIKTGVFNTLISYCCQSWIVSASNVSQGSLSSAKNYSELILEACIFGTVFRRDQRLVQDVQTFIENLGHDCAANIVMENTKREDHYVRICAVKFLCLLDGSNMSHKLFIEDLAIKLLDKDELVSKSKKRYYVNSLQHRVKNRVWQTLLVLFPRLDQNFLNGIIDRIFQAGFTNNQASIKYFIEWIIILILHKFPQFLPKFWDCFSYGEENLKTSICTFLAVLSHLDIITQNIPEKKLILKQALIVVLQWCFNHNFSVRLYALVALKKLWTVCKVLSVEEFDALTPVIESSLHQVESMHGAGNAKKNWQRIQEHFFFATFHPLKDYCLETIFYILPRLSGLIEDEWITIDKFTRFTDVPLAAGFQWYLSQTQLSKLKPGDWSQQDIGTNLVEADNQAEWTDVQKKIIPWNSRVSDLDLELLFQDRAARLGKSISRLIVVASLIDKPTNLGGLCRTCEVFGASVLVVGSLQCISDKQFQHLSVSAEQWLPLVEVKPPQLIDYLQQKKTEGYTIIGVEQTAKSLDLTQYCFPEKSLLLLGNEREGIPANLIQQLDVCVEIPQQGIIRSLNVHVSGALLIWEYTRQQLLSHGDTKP
UniProt Q9Y2W6: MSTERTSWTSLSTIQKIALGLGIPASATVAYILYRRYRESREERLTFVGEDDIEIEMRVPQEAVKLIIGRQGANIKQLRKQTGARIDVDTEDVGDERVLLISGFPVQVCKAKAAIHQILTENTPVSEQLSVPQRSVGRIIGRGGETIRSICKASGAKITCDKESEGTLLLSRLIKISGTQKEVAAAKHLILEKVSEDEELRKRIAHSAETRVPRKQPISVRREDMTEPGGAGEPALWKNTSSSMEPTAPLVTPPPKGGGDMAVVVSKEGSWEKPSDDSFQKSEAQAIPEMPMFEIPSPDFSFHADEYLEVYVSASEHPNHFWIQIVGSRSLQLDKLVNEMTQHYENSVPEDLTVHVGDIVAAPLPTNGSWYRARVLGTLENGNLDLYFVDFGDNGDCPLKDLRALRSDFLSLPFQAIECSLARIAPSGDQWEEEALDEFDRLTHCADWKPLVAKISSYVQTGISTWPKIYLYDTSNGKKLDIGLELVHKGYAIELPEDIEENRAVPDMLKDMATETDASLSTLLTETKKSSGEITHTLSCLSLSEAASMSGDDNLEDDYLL
UniProt Q9BTW9: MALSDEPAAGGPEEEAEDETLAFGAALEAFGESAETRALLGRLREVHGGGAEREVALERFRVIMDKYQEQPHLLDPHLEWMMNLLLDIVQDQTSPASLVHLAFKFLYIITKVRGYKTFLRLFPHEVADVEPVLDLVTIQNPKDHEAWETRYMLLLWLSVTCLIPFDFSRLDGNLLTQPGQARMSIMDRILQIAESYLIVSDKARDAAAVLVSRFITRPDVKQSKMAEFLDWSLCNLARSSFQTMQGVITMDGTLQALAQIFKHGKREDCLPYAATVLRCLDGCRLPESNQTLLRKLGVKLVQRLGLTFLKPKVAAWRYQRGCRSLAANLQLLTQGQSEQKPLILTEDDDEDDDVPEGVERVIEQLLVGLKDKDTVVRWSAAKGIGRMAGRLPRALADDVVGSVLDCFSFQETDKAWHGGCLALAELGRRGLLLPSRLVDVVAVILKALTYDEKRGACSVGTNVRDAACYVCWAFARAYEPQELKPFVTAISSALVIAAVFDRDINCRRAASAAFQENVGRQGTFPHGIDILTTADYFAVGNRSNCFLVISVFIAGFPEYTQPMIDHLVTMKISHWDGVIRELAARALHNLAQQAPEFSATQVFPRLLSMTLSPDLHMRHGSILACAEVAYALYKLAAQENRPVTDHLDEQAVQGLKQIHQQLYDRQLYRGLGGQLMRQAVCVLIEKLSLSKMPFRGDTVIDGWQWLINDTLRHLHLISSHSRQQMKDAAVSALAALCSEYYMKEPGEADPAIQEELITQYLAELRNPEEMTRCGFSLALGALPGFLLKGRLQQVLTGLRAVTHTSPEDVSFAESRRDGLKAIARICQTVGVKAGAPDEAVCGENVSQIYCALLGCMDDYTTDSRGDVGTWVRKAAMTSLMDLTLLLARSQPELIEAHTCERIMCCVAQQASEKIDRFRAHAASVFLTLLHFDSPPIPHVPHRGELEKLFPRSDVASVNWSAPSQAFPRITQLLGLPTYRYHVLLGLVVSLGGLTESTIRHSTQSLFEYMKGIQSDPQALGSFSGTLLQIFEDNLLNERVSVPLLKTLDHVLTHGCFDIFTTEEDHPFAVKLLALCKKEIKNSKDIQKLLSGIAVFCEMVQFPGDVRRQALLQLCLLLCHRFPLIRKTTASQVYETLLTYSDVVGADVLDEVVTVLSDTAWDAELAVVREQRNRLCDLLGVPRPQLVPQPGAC
UniProt Q8WVM0: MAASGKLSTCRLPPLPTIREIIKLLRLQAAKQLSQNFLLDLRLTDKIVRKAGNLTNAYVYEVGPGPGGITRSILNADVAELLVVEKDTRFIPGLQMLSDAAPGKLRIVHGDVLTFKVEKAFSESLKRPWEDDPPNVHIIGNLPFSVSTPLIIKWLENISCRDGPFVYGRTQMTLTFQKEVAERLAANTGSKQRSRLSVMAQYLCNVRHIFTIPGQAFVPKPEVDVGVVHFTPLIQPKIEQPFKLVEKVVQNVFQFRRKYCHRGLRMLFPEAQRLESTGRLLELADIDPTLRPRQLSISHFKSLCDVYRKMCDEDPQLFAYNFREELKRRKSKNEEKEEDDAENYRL
UniProt Q9ULP9: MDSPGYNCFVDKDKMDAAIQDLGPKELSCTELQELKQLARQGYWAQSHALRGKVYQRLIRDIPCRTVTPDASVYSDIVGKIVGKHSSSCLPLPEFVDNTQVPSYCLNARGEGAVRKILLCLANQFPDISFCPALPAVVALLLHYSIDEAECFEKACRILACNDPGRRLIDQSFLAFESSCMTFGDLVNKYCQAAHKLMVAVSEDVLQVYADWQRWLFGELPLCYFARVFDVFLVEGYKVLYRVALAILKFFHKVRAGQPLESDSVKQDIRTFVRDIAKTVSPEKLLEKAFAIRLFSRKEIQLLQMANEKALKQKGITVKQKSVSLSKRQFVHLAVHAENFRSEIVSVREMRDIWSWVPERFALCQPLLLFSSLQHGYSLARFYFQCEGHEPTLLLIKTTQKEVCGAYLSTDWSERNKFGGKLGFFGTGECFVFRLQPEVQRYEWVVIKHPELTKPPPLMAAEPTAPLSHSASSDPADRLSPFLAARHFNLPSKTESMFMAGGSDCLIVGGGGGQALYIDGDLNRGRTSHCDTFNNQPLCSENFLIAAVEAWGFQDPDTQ
UniProt Q9UBB9: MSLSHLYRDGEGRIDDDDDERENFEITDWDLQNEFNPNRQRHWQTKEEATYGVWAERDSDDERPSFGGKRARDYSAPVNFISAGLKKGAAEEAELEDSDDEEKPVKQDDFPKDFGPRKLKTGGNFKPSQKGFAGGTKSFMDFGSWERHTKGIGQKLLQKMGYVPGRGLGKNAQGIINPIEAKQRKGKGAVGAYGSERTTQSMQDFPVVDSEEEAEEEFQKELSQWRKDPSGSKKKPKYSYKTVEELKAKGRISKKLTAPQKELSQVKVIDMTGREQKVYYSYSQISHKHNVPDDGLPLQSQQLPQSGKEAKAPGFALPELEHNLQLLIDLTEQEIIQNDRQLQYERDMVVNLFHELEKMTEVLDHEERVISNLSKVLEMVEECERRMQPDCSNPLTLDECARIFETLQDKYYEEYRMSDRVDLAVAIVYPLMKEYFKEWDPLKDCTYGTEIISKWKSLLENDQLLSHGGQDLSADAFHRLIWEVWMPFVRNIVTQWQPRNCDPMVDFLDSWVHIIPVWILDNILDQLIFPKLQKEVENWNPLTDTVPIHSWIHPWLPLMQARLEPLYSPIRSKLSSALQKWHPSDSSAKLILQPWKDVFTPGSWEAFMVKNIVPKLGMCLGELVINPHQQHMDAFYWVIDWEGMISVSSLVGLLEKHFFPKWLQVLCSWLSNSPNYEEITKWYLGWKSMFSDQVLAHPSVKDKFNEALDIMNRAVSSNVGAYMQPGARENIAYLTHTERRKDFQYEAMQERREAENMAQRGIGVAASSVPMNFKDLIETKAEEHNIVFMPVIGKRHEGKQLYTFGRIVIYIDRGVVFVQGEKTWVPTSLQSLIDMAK
UniProt Q99081: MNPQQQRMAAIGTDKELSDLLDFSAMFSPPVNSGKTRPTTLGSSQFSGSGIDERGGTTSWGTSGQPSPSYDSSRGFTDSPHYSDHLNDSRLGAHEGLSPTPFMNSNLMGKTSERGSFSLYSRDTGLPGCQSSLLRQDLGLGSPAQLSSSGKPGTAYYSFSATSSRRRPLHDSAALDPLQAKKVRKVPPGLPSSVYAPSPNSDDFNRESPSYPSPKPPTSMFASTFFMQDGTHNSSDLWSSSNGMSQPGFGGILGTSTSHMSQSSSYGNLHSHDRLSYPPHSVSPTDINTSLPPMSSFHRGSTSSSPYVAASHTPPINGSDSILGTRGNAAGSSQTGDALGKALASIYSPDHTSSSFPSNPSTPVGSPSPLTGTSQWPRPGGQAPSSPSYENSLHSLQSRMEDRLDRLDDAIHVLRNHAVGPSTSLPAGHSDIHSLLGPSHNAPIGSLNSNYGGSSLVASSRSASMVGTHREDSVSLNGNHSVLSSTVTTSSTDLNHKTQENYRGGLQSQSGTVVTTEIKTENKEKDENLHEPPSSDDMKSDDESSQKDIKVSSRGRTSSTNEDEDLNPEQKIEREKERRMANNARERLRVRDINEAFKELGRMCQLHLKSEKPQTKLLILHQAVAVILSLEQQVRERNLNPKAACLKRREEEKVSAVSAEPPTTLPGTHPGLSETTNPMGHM
UniProt A2RTX5: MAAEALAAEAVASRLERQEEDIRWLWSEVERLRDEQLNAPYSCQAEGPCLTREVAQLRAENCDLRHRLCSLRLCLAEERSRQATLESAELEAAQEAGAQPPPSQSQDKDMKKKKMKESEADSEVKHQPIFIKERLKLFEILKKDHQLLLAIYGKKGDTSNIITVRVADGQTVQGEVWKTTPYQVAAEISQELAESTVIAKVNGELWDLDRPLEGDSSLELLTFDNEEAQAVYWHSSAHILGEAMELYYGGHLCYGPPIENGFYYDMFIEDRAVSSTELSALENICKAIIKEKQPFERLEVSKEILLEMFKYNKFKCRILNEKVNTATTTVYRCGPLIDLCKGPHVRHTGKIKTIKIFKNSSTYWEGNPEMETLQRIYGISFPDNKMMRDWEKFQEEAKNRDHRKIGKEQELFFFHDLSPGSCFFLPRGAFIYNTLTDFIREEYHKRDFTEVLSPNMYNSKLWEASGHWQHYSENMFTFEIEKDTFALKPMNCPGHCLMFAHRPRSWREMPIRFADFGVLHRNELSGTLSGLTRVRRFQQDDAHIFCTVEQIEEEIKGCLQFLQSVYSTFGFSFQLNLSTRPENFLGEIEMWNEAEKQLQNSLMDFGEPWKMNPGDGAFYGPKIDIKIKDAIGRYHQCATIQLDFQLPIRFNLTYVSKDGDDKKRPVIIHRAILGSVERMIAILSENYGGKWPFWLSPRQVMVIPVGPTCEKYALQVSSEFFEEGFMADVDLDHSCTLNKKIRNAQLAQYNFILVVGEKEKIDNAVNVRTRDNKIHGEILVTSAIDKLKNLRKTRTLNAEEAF

Legend:
Assay in all cases: log2 fold change, soluble protein after heating vs DMSO (PISA); higher = thermal stabilisation; K562 lysate, 10 uM; active = over 0.2 and 3.5 SD of the protein, either way, in both replicates (recomputed)
[1] = compound: NCC(=O)Nc1ccc(-n2nc(C(F)(F)F)cc2-c2ccc3c(ccc4ccccc43)c2)cc1
In short: (§1)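 Pellets of K562 cells were dounce-homogenised in PBS pH 7.4 with 1 mM MgCl2, and the crude extract was held at 1 mg/mL protein for a 30 min treatment with 10 μM compound. Aliquots were heated for 3 min over 48°C-58°C and pooled before NP-40 was added to 0.5% at 4°C. The supernatant from 21,000xg for 90 min was quantified by TMTpro 16plex LC-MS/MS with channel sums equalised. Values are reported from duplicates as log-two fold change in thermal stability relative to solvent controls.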

vorinostat = compound: O=C(CCCCCCC(=O)Nc1ccccc1)NO [vorinostat]
In short: as §1

silmitasertib = compound: O=C(O)c1ccc2c(c1)nc(Nc1cccc(Cl)c1)c1ccncc12 [silmitasertib]
In short: as §1

[2] = compound: O=C1NC(=O)C(c2cnc3ccccn23)=C1c1cn2c3c(cc(F)cc13)CN(C(=O)N1CCCCC1)CC2
In short: as §1

entospletinib = compound: c1cn2cc(-c3ccc4cn[nH]c4c3)nc(Nc3ccc(N4CCOCC4)cc3)c2n1 [entospletinib]
In short: as §1

Row | Target | log2 fold change [1] | log2 fold change (vorinostat) | log2 fold change (silmitasertib) | log2 fold change [2] | log2 fold change (entospletinib)
1 | TEFM (UniProt Q96QE5) | inactive: 0.115 | inactive: -0.102 | inactive: 0.016 | inactive: -0.033 | inactive: 0.04
2 | TCF3 (UniProt P15923) | inactive: -0.007 | inactive: -0.141 | inactive: -0.031 | inactive: 0 | inactive: -0.03
3 | TAX1BP1 (UniProt Q86VP1) | inactive: -0.015 | inactive: -0.023 | inactive: 0.017 | inactive: 0.009 | inactive: 0.073
4 | TBCEL (UniProt Q5QJ74) | inactive: 0.08 | inactive: -0.055 | inactive: 0.158 |  | 
5 | TCEAL1 isoform 2 (UniProt Q15170) | inactive: 0.058 |  |  |  | 
6 | TARDBP (UniProt Q13148) | inactive: 0.044 | active: -0.44 | inactive: 0.086 | inactive: -0.268 | inactive: -0.027
7 | TEX10 (UniProt Q9NXF1) | inactive: -0.004 | inactive: -0.042 | inactive: 0.155 | inactive: 0.066 | inactive: 0.014
8 | TARBP1 (UniProt Q13395) | inactive: -0.151 | active: -0.608 | inactive: 0.097 | inactive: 0.017 | inactive: 0.028
9 | TDRKH (UniProt Q9Y2W6) | inactive: -0.031 | inactive: -0.223 | inactive: 0.024 | inactive: -0.052 | inactive: 0.056
10 | TBC1D5 isoform 2 (UniProt Q92609) | inactive: 0.02 | inactive: -0.07 | inactive: 0.034 | inactive: 0.064 | inactive: 0.008
11 | TFDP2 (UniProt Q14188) | inactive: -0.001 | inactive: -0.314 | inactive: -0.083 | inactive: -0.014 | 
12 | TAPT1 (UniProt Q6NXT6) | inactive: 0.023 | inactive: 0.09 | inactive: 0.007 | inactive: 0.023 | inactive: 0.001
13 | TBCD (UniProt Q9BTW9) | inactive: 0.017 | inactive: -0.192 | inactive: -0.012 | inactive: -0.008 | inactive: 0.038
14 | TANK (UniProt Q92844) | inactive: 0.041 | inactive: -0.102 | inactive: 0.124 | inactive: 0.071 | inactive: 0.132
15 | TBC1D13 (UniProt Q9NVG8) | inactive: 0.023 | inactive: -0.049 | inactive: 0.005 | inactive: -0.003 | inactive: 0.014
16 | TFCP2 (UniProt Q12800) | inactive: -0.072 | active: -0.465 | inactive: 0.045 | inactive: 0.029 | inactive: 0.051
17 | TARBP2 (UniProt Q15633) | inactive: -0.017 | active: -0.519 | inactive: 0.024 | inactive: -0.03 | inactive: -0.002
18 | TDP1 (UniProt Q9NUW8) | inactive: -0.004 | inactive: -0.022 | inactive: 0.035 | inactive: -0.03 | inactive: 0.047
19 | TEX2 isoform 2 (UniProt Q8IWB9) | inactive: 0.148 | inactive: -0.042 | inactive: 0.006 | inactive: -0.112 | inactive: 0.016
20 | TAOK1 (UniProt Q7L7X3) | inactive: 0.02 | inactive: 0.008 | inactive: -0.02 | inactive: 0.001 | inactive: 0.008
21 | TFB1M (UniProt Q8WVM0) | inactive: -0.011 | inactive: -0.13 | inactive: 0.154 | inactive: 0.027 | inactive: 0.049
22 | TBC1D20 isoform 3 (UniProt Q96BZ9) | inactive: -0.118 | inactive: 0.088 | inactive: -0.013 | inactive: 0.058 | inactive: 0.02
23 | TATDN1 (UniProt Q6P1N9) | inactive: 0.004 | inactive: 0.084 | inactive: -0.001 | inactive: -0.025 | inactive: -0.022
24 | TCF3 (UniProt X6REB3) | inactive: -0.257 |  |  |  | 
25 | TBCA (UniProt O75347) | inactive: -0.005 | inactive: 0.054 | inactive: 0.014 | inactive: -0.014 | inactive: 0.006
26 | TCP11L1 (UniProt Q9NUJ3) | inactive: 0 | active: -0.317 | inactive: -0.043 | inactive: 0.006 | inactive: 0.019
27 | TBC1D22B (UniProt Q9NU19) | inactive: -0.06 | inactive: 0.007 | inactive: 0.049 | inactive: -0.089 | inactive: -0.024
28 | TATDN1 isoform 2 (UniProt Q6P1N9) | inactive: 0.18 | inactive: -0.037 | inactive: -0.115 | inactive: 0.096 | 

Quoted at random: two entries already listed.
Row | Target | log2 fold change [1] | log2 fold change (vorinostat) | log2 fold change (silmitasertib) | log2 fold change [2] | log2 fold change (entospletinib)
20 | TAOK1 (UniProt Q7L7X3) | inactive: 0.02 | inactive: 0.008 | inactive: -0.02 | inactive: 0.001 | inactive: 0.008
6 | TARDBP (UniProt Q13148) | inactive: 0.044 | active: -0.44 | inactive: 0.086 | inactive: -0.268 | inactive: -0.027

(next part)

Row | Target | log2 fold change [1] | log2 fold change (vorinostat) | log2 fold change (silmitasertib) | log2 fold change [2] | log2 fold change (entospletinib)
29 | TBC1D24 (UniProt Q9ULP9) | inactive: 0.023 | inactive: -0.256 | inactive: 0.038 | inactive: -0.018 | inactive: 0.057
30 | TBC1D25 (UniProt Q3MII6) | inactive: -0.011 | inactive: 0.219 | inactive: -0.059 | inactive: -0.018 | inactive: 0.006
31 | TCP1 (UniProt P17987) | inactive: 0.008 | inactive: -0.014 | inactive: 0.016 | inactive: 0.002 | inactive: 0.02
32 | TFIP11 (UniProt Q9UBB9) | inactive: -0.001 | inactive: -0.06 | inactive: 0.013 | inactive: 0.001 | inactive: 0.067
33 | TCIRG1 (UniProt Q13488) | inactive: -0.032 | inactive: -0.042 | inactive: -0.026 | inactive: 0.001 | inactive: 0.047
34 | TBPL1 (UniProt P62380) | inactive: 0.011 | inactive: -0.108 | inactive: 0.014 | inactive: 0.053 | inactive: -0.013
35 | TEAD2 isoform 4 (UniProt Q15562) | inactive: 0.092 | inactive: 0.056 | inactive: -0.055 |  | 
36 | TFPI (UniProt P10646) | inactive: 0.067 | inactive: 0.106 | inactive: 0.01 | inactive: -0.063 | inactive: -0.057
37 | TBL1X (UniProt O60907) | inactive: -0.037 | inactive: -0.079 | inactive: 0.023 | inactive: -0.05 | inactive: -0.024
38 | TECR (UniProt Q9NZ01) | inactive: -0.031 | inactive: 0.024 | inactive: 0.076 | inactive: 0.032 | inactive: 0.033
39 | TBCE (UniProt Q15813) | inactive: -0.029 | active: -0.27 | inactive: 0.018 | inactive: -0.025 | inactive: 0.021
40 | TDRD3 isoform 3 (UniProt Q9H7E2) | inactive: 0.23 | inactive: -0.016 | inactive: -0.03 | inactive: 0.008 | inactive: -0.041
41 | TAPBP isoform 3 (UniProt O15533) | inactive: -0.015 | inactive: 0.211 | inactive: -0.084 | inactive: 0.052 | inactive: 0.047
42 | TFB2M (UniProt Q9H5Q4) | inactive: 0.018 | inactive: -0.121 | inactive: -0.02 | inactive: -0.004 | inactive: 0
43 | TBCC (UniProt Q15814) | inactive: -0.048 | inactive: 0.029 | inactive: 0.029 | inactive: -0.005 | inactive: 0.007
44 | TAF9 (UniProt Q16594) | inactive: 0.002 | inactive: -0.099 | inactive: -0.011 | inactive: -0.003 | inactive: -0.017
45 | TF (UniProt P02787) | inactive: -0.008 | inactive: 0.173 | inactive: -0.07 | inactive: 0.029 | inactive: 0.033
46 | TBCB (UniProt Q99426) | inactive: 0 | inactive: -0.072 | inactive: -0.01 | inactive: 0.026 | inactive: 0.004
47 | TESC (UniProt Q96BS2) | inactive: -0.036 | inactive: 0.058 | inactive: 0.103 | inactive: -0.014 | inactive: -0.111
48 | TCF12 isoform 3 (UniProt Q99081) | inactive: -0.016 | active: -0.263 | inactive: -0.024 | inactive: -0.004 | inactive: 0.006
49 | TFRC (UniProt P02786) | inactive: 0.004 | inactive: 0.13 | inactive: -0.014 | inactive: -0.013 | inactive: 0.005
50 | TBC1D15 isoform 3 (UniProt Q8TC07) | inactive: -0.013 | inactive: -0.118 | inactive: 0.035 | inactive: -0.027 | inactive: 0.018
51 | TCEA1 (UniProt P23193) | inactive: -0.016 | inactive: 0.1 | inactive: -0.012 | inactive: -0.015 | inactive: 0.02
52 | TBL1XR1 (UniProt Q9BZK7) | inactive: 0.015 | inactive: -0.078 | inactive: -0.01 | inactive: 0.016 | inactive: -0.025
53 | TFR2 (UniProt Q9UP52) | inactive: 0.036 | inactive: 0.091 | inactive: -0.023 | inactive: -0.024 | inactive: 0.029
54 | TARSL2 (UniProt A2RTX5) | inactive: 0.012 | inactive: 0.013 | inactive: -0.003 | inactive: 0.001 | inactive: 0.009
55 | TATDN3 isoform 3 (UniProt Q17R31) | inactive: 0.016 | inactive: 0.089 | inactive: 0.004 | inactive: -0.042 | inactive: 0.018
